# The whole screen tested about 53,000 sequences, of which about 3,700 (7%) were called active.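 The calls were made as follows: active = gene knockdowns whose robust z-score for IL-1 alpha signal is at least 2 or at most -2, so actives lie on both sides; inactive = the rest.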 The list shows a part of the results.
# Experiment: Components of the Cytosolic LPS Sensing Pathway: Gene Identification via Genome-wide siRNA Screen;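 also: robust z of the log signal after scaling to non-targeting control siRNA wells of the plate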
# Settings: RAW264.7 macrophages, IL-1a HTRF, actives lie on both sides, screened at 100 nM (by protocol), cells primed 5 h with Pam3CSK4 first
# Method in brief: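 Three distinct siRNAs per gene were tested singly at 100 nM in RAW264.7 macrophages. Following Pam3CSK4 priming and 24 hour LipidA transfection, IL-1a secretion was read by HTRF.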
row,Sequence,z-score
1,GGACCUUGAGAUAUCUUUUTT against D130020L05Rik,inactive: -0.361
2,GGUAGACCUAAAUAAUAUGTT against Cyp2d12,inactive: 0.149
3,GCUAUCCAGAUUGGUGUUATT against Tatdn1,inactive: 1.7
4,GGACAAUAGGAGCCUUUAATT against Vmn1r211,inactive: 0.125
5,GGCCCUUGUUUAAAGCCAUTT against Asns,inactive: 0.0954
6,GCCAAAAAUAUGGGAGAUATT against Col1a1,inactive: 0.787
7,CCUUCUUCUUACUGAUAAUTT against Olfr1276,inactive: -0.471
8,GGAGCAUUUGUUACAAAUUTT against Ivns1abp,inactive: 1.49
9,GGACUUUGAAGAGGACAAUTT against Dhx38,inactive: 1.65
10,GGGAAAGACGAGUCAAAGGTT against Gbx2,inactive: -0.492
11,GGAGAAGCAAAACUUUUAATT against Snrpa1,active: -2.87
12,GCACAGUGACUACAUUCCUTT against Olfr479,inactive: -0.282
13,GGGUGGCAAGUGUACAGCUTT against Olfm3,inactive: 0.882
14,GCCGACUGGUUAAAUACAUTT against Nme3,active: 5.79
15,GGAAUUCCACCUAAAAUUGTT against Ttn,inactive: 1.32
16,GGACAGAGCAGACAUUCAUTT against Rps6kc1,inactive: -0.147
17,GAGUCCCAUUGAUAGAGGUTT against Olfr741,inactive: 0.395
18,GCUACAAUGUUUUUGGAGATT against Gc,inactive: -0.0171
19,GGUUCAUUUCAGUUGGGUUTT against Higd2a,inactive: -0.00768
20,GCCCAAAUCUCAUUCAUAGTT against Kif5a,inactive: -0.718
21,GGCUGUUCGAGCUAUCCACTT against Asap3,inactive: 0.214
22,CCUUGGUGGCCCAUUUAGCTT against 9830107B12Rik,inactive: -0.128

row,Sequence,z-score
1,CGGUUUGGAAUGAAGAAUUTT against Rasa3,inactive: 0.808
2,GCGAAAUCAGUUGGUAAAUTT against Atf7,inactive: 0.185
3,GGCCAACUGCCCUCACAUUTT against Rbbp9,inactive: -0.445
4,GCCGAAGUAUCUGAUAGUCTT against Abi3bp,inactive: 0.97
5,GCUAAGAUUCCUUCCAGUATT against Adm2,inactive: 0.98
6,CGAGUGAAUGACUUUAACATT against Ubn1,inactive: 0.687
7,GGAGAAGAAUUAAAUGGAGTT against Rhox5,inactive: -0.314
8,CCCAAUCAGCAAAGACGACTT against Trabd,inactive: -0.697
9,CCGACUCCUACAGAUUAUUTT against Slc35g3,inactive: -0.489
10,GGAAGUUCAAGUGCUACUGTT against Zpbp2,inactive: -2
11,AGGUAACAGUUCAACAGUATT against Olfr1039,inactive: 0.332
12,GGGAGCAAGAGCUCUUUUCTT against Zxdc,inactive: 0.625
13,GGAGGACUGGGAAGAUCAUTT against Aqp5,inactive: 0.152
14,GGUUAUUAAGACCCAGGUCTT against Tctex1d1,inactive: -0.956
15,CCGUAACAAGGAUCAGGAATT against S100a6,inactive: 0.422
16,GCAGUUAAGGACAAUCAUGTT against Fhdc1,inactive: 1.32
17,CGAUGACAUCAGGAUUGUUTT against Adgrg7,inactive: -0.124
18,GGGAUUCAGUAUAAAACACTT against Nup37,inactive: -1.25
19,GCACUUUUCGGAACUAUAUTT against Rbp1,inactive: -1.05
20,GGAACUGUAUUCAUUGAUGTT against Rnpepl1,inactive: 0.195
21,CCUAUGUGUGUGAUCUUGATT against Nnmt,inactive: -0.0647
22,GGACGAACAGUAUUAUACUTT against Lhx5,active: 2.11

row,Sequence,z-score
1,CCAGCUUUUGUUUGUUAGATT against Trappc11,inactive: 0.56
2,GCAACCUUAUGCUCUAUUUTT against Ythdf3,inactive: 0.519
3,GGAGGUGAGAAAUACAGAGTT against Dbpht2,inactive: -0.215
4,GGUUCCUGUGAAUUAUGUGTT against H2ap,inactive: 0.364
5,GCUAUAUGCUGAGUAUGACTT against Olfr777,inactive: -1.07
6,CGACAGAGGAAGGUAUUGGTT against Gcsh,active: -2.95
7,GGUCACCUACUAUCACAAGTT against Kcnh7,inactive: -0.547
8,GAUAAUGGUCACUAAAUCUTT against Vmn1r4,inactive: -1.65
9,GUGUUCAAUAUACUGGCAATT against Klra10,inactive: 1.66
10,GGGUGUUAUUUUCUUCUAUTT against Stambp,inactive: -0.496
11,GGGUUUAGACCAAUCCCUCTT against Adamts15,inactive: -0.441
12,CCAUAUUGAAACCUCAUUUTT against Fam126a,active: -2.33
13,GUCCUAGAGGAUCUGGAUGTT against Vmn1r210,inactive: -1.44
14,GGAAACAGGAAACAAUCUATT against Ccdc69,inactive: 0.609
15,CCAGGUGAAUUAAUAGUCUTT against Stk4,inactive: 0.93
16,GGGAGAGCAGUUUGAAUGGTT against Usp27x,inactive: 1.13
17,GGGAAGAAUACUAUAGAUGTT against Slc12a2,inactive: -0.137
18,UCGAGGACAGCAUGAACAGTT against Rims4,inactive: -1.22
19,GCUACAUGAUGUUUGGCAATT against Med7,inactive: 0.549
20,GCUACAAAUAUUCUUUGGCTT against Mmp20,inactive: -1.46
21,GGGACUUAAGUGAAGUUCATT against Ogfod2,inactive: 0.232
22,GGCUGUUAUCCAGAGAGAUTT against Nim1k,inactive: 0.177

row,Sequence,z-score
1,GGACAUAAUCAAAUACAACTT against Eif3h,inactive: 0.00392
2,UCAACUCAAACUAUGUCGATT against Hoxb4,inactive: -0.172
3,GGAAGACCUGAAGAAGGUGTT against Gck,inactive: -1.04
4,GGCGACAGACUUAUUAUUGTT against Prdx5,inactive: -0.0257
5,GGAAACUAGAUCAUGAGAUTT against Rtkn,inactive: 0.105
6,GGCAUUCAGGAGGACUAGUTT against Lyz1,inactive: -1.12
7,GCUGGUUACAUGAAAUUAATT against Nup133,inactive: -1
8,GAUCCAAGACAAGGAAGGCTT against Uba52,inactive: 0.661
9,GGUUCAGAAGAGUCAGGAGTT against Dnajc14,inactive: -0.091
10,GGAAUGAUUUUCUUAAGGATT against Ddr2,inactive: 0.387
11,GAUUACGUUGGCCUGUCUCTT against Tff3,inactive: -0.119
12,CCUUAAAGAACUAUCAUUGTT against Senp2,inactive: -0.422
13,GGUUGGCUAGUCUGUCUGATT against Atp5h,inactive: 0.443
14,GGAAAAAGAUGCGACAAUGTT against A930012O16Rik,inactive: -1.01
15,CCAUGAAGAACAAGAAAACTT against 1700010D01Rik,inactive: 0.239
16,CCAAUGGUGAUCAAAGCGGTT against 8430429K09Rik,inactive: 0.175
17,GCCUUUCUCAUUAGUCUCUTT against Vmn1r41,inactive: -0.397
18,CGCAUUUCAAGGGAAAAUUTT against Tubgcp3,inactive: 0.772
19,GCUCAUCAAAACACUGACCTT against Heatr1,inactive: 0.166
20,GGAAGACAUGGUUUUGAAGTT against Vmn1r-ps103,inactive: -1.01
21,CCGUUUCUUUCCAUGAUAATT against Aak1,inactive: -0.379
22,CCGCCUAGCUGAUCUUGUGTT against Aldh1b1,inactive: -0.495

# Reformatted tab-delimited: part of the list above
row	Sequence	z-score
18	CGCAUUUCAAGGGAAAAUUTT against Tubgcp3	inactive: 0.772
19	GCUCAUCAAAACACUGACCTT against Heatr1	inactive: 0.166
20	GGAAGACAUGGUUUUGAAGTT against Vmn1r-ps103	inactive: -1.01

# More results follow.

row,Sequence,z-score
1,GCAGUCCAGUAAUUAAUUCTT against Havcr2,inactive: 0.61
2,GGAAGAAUAUGCCAGAAUGTT against Stra8,inactive: -0.294
3,GGACAUUCAUGGUGAUAGCTT against Sugp2,inactive: -0.378
4,GGCAAACCUGAAGAAGUUCTT against Shank3,inactive: -1.43
5,GGCAAAAUUAUGAAUGGCCTT against Rfk,inactive: -0.27
6,CCCUCAAGGAUUUAGCCAUTT against Zfp473,inactive: 0.0264
7,GCAGGAUUGCAUAUAUCGGTT against Cspg5,inactive: -0.672
8,GCUGGUGCUCUUCACCAUATT against Fbxw17,inactive: -0.419
9,CCUCCCAGAUUGCUCUAAUTT against Depp1,inactive: -1.57
10,GCCUGAGAUCGUGAACACUTT against Ccdc159,inactive: -0.0179
11,GGCGUGAAUGAAUUUGGAATT against Adam22,inactive: -0.816
12,GGCAUAGGACUAGAAGCAGTT against Rsrc2,inactive: -1.54
13,GGUUUUCUUAGAUACUUUGTT against Fzd6,inactive: 1.03
14,GGAGAUGAAAUAAAGUGGATT against Acsm1,inactive: -0.573
15,GGAGAAGCUGGCAAAUAUGTT against Mbl1,inactive: -0.63
16,CGGACAAAGGACGAGUGUUTT against Fn3krp,active: 3.02
17,GGUGUCAGAUAAUGAUUGUTT against Susd6,inactive: 0.576
18,GGCUAUCCCUGUUGUGUCUTT against Kit,inactive: -1.49

# Some of the entries so far, as tab-separated lines:
row	Sequence	z-score
11	GGAGAAGCAAAACUUUUAATT against Snrpa1	active: -2.87
12	GCACAGUGACUACAUUCCUTT against Olfr479	inactive: -0.282
13	GGGUGGCAAGUGUACAGCUTT against Olfm3	inactive: 0.882
14	GCCGACUGGUUAAAUACAUTT against Nme3	active: 5.79

# — PubChem BioAssay AID1508600 (Functional Genomics Laboratory (NCATS/FGL), 2020)
